From article PMC3444471 come the findings set out here.

The chains behind the UniProt entries cited, without tags or fusion partners.
UniProt O42998: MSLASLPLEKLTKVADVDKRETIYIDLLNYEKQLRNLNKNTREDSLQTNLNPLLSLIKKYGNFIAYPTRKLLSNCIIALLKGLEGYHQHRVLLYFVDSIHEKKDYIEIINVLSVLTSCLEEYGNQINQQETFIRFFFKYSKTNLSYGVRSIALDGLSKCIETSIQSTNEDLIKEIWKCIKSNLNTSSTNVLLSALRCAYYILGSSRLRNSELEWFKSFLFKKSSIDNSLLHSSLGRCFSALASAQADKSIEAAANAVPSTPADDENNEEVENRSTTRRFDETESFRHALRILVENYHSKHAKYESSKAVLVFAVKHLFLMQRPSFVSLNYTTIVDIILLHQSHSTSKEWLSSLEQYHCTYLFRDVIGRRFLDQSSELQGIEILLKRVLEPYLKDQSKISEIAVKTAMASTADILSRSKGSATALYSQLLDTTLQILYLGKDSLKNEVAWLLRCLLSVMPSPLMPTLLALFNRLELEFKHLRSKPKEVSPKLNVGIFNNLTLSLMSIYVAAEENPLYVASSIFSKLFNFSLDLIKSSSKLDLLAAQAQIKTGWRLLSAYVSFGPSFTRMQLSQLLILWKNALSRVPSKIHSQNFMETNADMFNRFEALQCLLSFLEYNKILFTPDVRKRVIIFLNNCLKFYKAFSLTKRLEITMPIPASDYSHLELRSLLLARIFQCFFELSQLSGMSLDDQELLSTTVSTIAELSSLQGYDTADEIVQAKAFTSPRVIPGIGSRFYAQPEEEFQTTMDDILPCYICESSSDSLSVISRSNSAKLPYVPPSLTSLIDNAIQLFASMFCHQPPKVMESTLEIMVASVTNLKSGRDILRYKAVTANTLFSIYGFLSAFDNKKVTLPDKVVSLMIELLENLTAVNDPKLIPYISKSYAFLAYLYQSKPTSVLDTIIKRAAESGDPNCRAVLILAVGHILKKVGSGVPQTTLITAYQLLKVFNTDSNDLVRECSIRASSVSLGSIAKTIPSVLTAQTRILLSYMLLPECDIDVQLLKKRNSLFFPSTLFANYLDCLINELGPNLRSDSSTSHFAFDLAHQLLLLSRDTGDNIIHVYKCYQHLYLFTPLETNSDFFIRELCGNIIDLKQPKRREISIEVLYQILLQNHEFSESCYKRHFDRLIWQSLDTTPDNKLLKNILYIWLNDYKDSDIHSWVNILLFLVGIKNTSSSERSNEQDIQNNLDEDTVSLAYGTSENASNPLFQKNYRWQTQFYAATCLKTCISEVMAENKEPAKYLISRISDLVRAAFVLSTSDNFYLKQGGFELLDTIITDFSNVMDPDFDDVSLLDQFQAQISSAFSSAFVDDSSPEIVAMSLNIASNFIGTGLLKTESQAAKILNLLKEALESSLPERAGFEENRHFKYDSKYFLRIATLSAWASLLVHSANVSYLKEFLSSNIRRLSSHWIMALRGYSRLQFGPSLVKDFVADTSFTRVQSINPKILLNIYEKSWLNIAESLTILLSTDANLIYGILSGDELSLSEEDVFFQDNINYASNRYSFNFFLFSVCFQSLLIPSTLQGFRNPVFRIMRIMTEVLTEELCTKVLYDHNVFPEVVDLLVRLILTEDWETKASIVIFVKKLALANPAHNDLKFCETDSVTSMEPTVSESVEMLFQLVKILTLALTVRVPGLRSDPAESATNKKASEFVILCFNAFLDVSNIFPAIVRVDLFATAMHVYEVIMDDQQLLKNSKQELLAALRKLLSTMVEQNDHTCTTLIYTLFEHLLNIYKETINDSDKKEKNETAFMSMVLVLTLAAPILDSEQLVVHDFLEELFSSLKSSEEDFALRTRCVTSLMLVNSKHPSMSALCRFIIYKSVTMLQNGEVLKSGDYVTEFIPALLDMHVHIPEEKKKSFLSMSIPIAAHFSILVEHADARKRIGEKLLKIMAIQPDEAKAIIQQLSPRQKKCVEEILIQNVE

These are yes or no findings as the source states them, for the method shown. In cells and extracts the contact can be indirect. Some entries that bind do so weakly or less than the wild type. Tags and fused reporters may be left off the sequences shown.

The chains are these.
B1: GFP-Apl2 (protein, UniProt O43079 1-683)
chain: MVPKLFQSSRFKAFKKSETSELQKGLVSQYAYERIDAVKRTIAAMTVGKDVSSLFPDVLKNLATRDITLKKLVYLYLINYAKTHPDLCILAVNTFVKDSEEYNPTLRALAIRTMGCIRVNKIIGYLADPLRKALKDEHPYVRKAAAVCVVKMYDLDREYCASNGFIEQLQALVSDPNPVVVANAVRSLAEIHDQDPEKGYFNVVYTMTDRLMVALSECNEWGRITILNSLARFRTSDIKEAEYVCERVVPQFQHANSGVVLSAVKVIMVHIPLFSSDFTDFLYKKMAPPLLTLLSTDSEIQYVALRNINLILQKRPSIFDVKTRVFFCKYNDPLYIKMEKLKIITMLACDENINETISELRAYVSEVELEFVKQTIKCLGDVALKVPSVINDCISIFLEIYELNISYMVQEVTVVMETVLRKYPQKIDLLLPYLSRVIEELGDPRARSSMAWILGEFSHVIPTSSKLLSEMISTMADEDLQIQLALLTAVVKLSLMNGKGNDEELVQKVLNYAINQSSNQDLRDRAFAYQRLLTPENVRKAQKIVCCEKPSVSYNNNLPEALLDALLCEITTLASVYHKLPESFIGQGKFGADAIQRRAVEELNIEEANVHEAIEKGANVENLLDLDFTDPGATSASDSPITSAQPQSGSNSAMDLFMAFEAPSTNNAEPVKARSATDDLLGL
B2: GFP-Aps1 (protein, UniProt Q9P7N2 1-162)
chain: MSIKFFLLVSRQGKVRLAKWFNTLSIKERAKIIRDVSSLVITRKPKMCNFVEYKGEKIVYRRYASLFFVCGIEQDDNELIILEVIHKFVECLDKYFGNVCELDLIFNFEKAYYVMEELLLAGELQESSKTNVLSAVLAGDAESEADAQQDSLQKLVGSVKKR
B3: Apm1-GFP (protein, UniProt Q9HFE5 1-426)
chain: MASAIFVLNLKGKVIISRDYRADIPMSVVEKFLPLKSEVEEEQGFSTPCLTHEGINYIYIHHNDVYLLALSKMNSDAMEMLVFLRKMADVFIDYFKELQEESIRDNFVLVYELLDEIMDFGFPQTTETKILQEYITQTSNTVKKHAPPPIAMTNAISWRSEGIHYRKNEVFLDVIESVNLIAAADGTVIQSEILGKVRLKCYLSGMPELRLGLNDKVLFEAAGRTIKGNTVEMEDVKFHQCVRLARFENDRTISFIPPDGEFDLMSYRMSSNVRPLIWVECESIVHSGSRIEFMVKAKAQFKKRCIANNVQIIIPVPEDADSPRFQTSNGHVQYAPEQAAMVWNIKKFAGGKEFFMRAEMGLPSVKNEDIQVQKKRPVQLKFAIPYFTTSGIQVRYLKITEPKLNYHAMPWVRYVTQNGTEYSIRQ
B4: Apl4-GFP (protein, UniProt Q9UU81 1-836)
chain: MSSLKSFIKAVRASKTTAEEHTTILKESAQIRKNIRQGSNDMRMRRKNVAKLLYLFLLGEPTHFGQIECLKLLSSSRFMDKRLGYLAAMLLLDENQEVLTLLTNSLQNDLKSRDKFIVGLALSAFGNVAGPELARDLSNDIAELCSNHHNYISKKAVLCALRVIQKEPDLESLYIEKTDELLHSKSHGVLMAALAFAISACKINPSLISRFESQADDLIYRIRQLSTSTYSSEHNIGNISDPFLQVKILQFLSILGQNNPKIYDKMSDLLAQVCTNTDSSRNAGNAILYQAVRTILDLNSDSSLRVLGVNILAKFLGNRDNNTRYVALNMLKLVVNSEENAVQRHRSTILACLNDVDSSIQSRALELSTFLVNEANVRFMVRELLSFLDNVSDELRGSTAQYITEVTNAFAPNKRWHFDTLLRVFKSAGNFVSESTLSTFLRLIASAPELHEYAVVKLYAALKEDVSQEALTLSAFWVIGEYGQMLLSPTMNFDDDQTLPHSVSESDIVDIIEEVFNSVEASRYIIVQYGLFALTKLSARLGSSSTASRIDKIIYSYKRNKNTEVQQRSVEFHLILNDSKLSKTILEPTPAPLPPPRTTPYQNAEQKLKANKHVEKRVQESNELLDLIGLTTPSVAEPLETPVDEMTQSPQSSLSRAPSTSKKSHFEDILGLFASPAPSAQPVDSLASSFASLDFNASASQPSNNLSLLSSIPSTSKSYPPIVVFDKHDVTLTLVPSKEESTKTAVIEAKFKNKNPMTRVEKIHLEVAVPKSQKLKIQPLRTTSMEPGGETSQTLRVHGPSGSQVKLRLRISVVRQGGSNTLDQVDFGKLPSDLLQ

For the assay, the target named is GST-Sip1 (full-length Sip1 fused to glutathione-S-transferase) (Schizosaccharomyces pombe) (UniProt O42998). Description: pull-down; GST-Sip1 precipitated by glutathione beads after incubation with lysates of S. pombe cells expressing GFP-tagged AP-1 subunits or GFP alone; washed extensively, SDS-PAGE, immunoblot with anti-GFP or anti-GST; only the target purified. (Immunoblotting shows a protein as a band on a membrane.)
Turning to B1, the binding entry was “binds”. With B2, the binding result was “binds”. Consider B3, for which the binding entry was “binds”.

On to B4, for which the binding result is reported as “binds”.
